Results taken from publication PMC3897375, “Def1 Promotes the Degradation of Pol3 for Polymerase Exchange to Occur During DNA-Damage–Induced Mutagenesis in Saccharomyces cerevisiae” (PLoS Biology, 2014).

Key:
[1] = molecular target: T1, Rad5 with a C-terminal TAP tag (S. cerevisiae) (UniProt P32849); experiment: affinity purification with mass spectrometry; TAP of chromosomally TAP-tagged Rad5 from whole cell extract of untreated control cells (no MMS); IgG Sepharose (500 mM NaCl, 0.01% Nonidet P-40), TEV elution, calmodulin beads, EGTA elution; Coomassie gel, bands identified by MALDI-TOF
T1 sequence: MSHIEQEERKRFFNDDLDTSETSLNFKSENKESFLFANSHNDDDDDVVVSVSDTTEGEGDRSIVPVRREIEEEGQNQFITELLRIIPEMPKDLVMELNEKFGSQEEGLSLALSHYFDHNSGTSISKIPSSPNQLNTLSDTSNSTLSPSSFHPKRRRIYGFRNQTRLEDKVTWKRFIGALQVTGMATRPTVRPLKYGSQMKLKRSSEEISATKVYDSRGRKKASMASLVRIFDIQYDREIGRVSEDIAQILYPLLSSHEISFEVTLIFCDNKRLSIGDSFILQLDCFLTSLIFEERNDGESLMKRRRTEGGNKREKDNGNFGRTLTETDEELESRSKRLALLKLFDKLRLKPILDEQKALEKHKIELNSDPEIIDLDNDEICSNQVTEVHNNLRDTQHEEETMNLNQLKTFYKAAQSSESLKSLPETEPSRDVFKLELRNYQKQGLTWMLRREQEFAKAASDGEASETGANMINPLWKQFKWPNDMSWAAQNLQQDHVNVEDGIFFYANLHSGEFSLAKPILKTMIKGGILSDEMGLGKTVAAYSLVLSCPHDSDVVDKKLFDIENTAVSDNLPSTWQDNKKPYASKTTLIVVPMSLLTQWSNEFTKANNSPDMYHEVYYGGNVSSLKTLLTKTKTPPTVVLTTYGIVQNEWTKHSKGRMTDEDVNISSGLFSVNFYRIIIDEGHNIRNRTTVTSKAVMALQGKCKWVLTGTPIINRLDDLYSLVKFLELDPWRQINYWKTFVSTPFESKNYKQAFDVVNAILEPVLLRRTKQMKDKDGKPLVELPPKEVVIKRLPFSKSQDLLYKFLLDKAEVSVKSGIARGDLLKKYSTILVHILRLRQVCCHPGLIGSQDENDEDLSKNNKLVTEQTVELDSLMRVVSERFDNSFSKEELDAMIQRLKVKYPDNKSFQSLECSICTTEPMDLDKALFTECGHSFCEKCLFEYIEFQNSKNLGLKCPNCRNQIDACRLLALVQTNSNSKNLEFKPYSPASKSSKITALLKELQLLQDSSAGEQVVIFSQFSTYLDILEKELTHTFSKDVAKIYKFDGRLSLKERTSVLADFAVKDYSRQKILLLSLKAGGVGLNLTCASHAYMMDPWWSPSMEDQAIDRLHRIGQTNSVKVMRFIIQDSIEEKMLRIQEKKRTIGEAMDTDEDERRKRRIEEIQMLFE

[2] = molecular target: T1, Rad5 with a C-terminal TAP tag (S. cerevisiae); experiment: affinity purification with mass spectrometry; TAP of chromosomally TAP-tagged Rad5 from whole cell extract of cells treated with 0.02% MMS for 2 h; IgG Sepharose (500 mM NaCl, 0.01% Nonidet P-40), TEV elution, calmodulin beads, EGTA elution; Coomassie gel, bands identified by MALDI-TOF

B1: Def1 (protein, UniProt P35732 1-738)
chain: MSTQFRKSNHNSHSSKKLNPALKSKIDTLTELFPDWTSDDLIDIVQEYDDLETIIDKITSGAVTRWDEVKKPAKKEKYEKKEQQHSYVPQQHLPNPEDDITYKSSNNSNSFTSTKHNSSNNYTQARNKKKVQTPRAHTTGKHVNLDKGKHVPSKPVSNTTSWAAAVSVDTKHDVPQDSNDNNNEELEAQGQQAQEKNQEKEQEEQQQQEGHNNKEEHKQIEQPSLSSKKTTSRTSASQPKKMSWAAIATPKPKAVKKTESPLENVAELKKEISDIKKDDQKSEASEEKVNEQETSAQEQEEETAEPSEENEDRVPEVDGEEVQEEAEKKEQVKEEEQTAEELEQEQDNVAAPEEEVTVVEEKVEISAVISEPPEDQANTVPQPQQQSQQPQQPQQPQQPQQPQQPQQQQQPQQPQQPQQQLQQQQQQQQQPVQAQAQAQEEQLSQNYYTQQQQQQYAQQQHQLQQQYLSQQQQYAQQQQQHPQPQSQQPQSQQSPQSQKQGNNVAAQQYYMYQNQFPGYSYPGMFDSQGYAYGQQYQQLAQNNAQTSGNANQYNFQQGYGQAGANTAAANLTSAAAAAAASPATAHAQPQQQQPYGGSFMPYYAHFYQQSFPYGQPQYGVAGQYPYQLPKNNYNYYQTQNGQEQQSPNQGVAQHSEDSQQKQSQQQQQQQPQGQPQPEVQMQNGQPVNPQQQMQFQQYYQFQQQQQQAAAAAAAAAQQGVPYGYNGYDYNSKNSRGFY
[1]
  binding: no binding (only cells without MMS treatment)
[2]
  binding: binds

No constants are given. Whether binding was seen depends on the method and setting. Binding seen in cells or lysates may run through a third protein. A yes stands for co-enrichment or nearness to the bait. Other partners may have been found. For some assays here: A no says only that the protein was not detected with the bait. Tags and fused reporters may be left off the sequences shown.
